Source: ChEMBL document CHEMBL3988442, “University of Dundee, Small-Polar-MMV Screening Library” (2021).

Chains of the proteins cited; added tags and fusions are not shown.
UniProt E9BF75, entry or part of it: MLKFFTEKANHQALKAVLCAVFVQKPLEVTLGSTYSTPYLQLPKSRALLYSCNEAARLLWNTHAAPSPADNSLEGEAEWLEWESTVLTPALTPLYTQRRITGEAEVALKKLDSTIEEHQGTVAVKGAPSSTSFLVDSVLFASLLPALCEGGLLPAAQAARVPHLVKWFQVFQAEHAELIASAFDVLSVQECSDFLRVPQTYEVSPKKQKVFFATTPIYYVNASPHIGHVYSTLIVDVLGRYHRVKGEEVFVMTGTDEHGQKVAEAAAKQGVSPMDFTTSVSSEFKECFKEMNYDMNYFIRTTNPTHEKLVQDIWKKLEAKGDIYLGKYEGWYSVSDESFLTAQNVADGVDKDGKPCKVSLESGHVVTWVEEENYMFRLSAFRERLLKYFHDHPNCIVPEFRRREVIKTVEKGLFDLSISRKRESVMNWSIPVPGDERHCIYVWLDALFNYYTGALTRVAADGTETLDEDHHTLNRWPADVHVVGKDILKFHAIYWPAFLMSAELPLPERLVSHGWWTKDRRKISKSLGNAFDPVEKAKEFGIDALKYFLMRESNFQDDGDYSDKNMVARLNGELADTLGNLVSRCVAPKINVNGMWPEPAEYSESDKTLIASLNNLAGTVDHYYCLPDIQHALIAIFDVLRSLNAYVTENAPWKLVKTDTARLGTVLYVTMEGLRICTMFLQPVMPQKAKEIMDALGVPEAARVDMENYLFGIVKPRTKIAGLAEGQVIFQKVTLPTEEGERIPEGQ

LdMetRS: 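Primary screen of methionyl-tRNA synthetase; the read-out is not stated. Target: Methionyl-tRNA synthetase (putative), Leishmania donovani (UniProt E9BF75). The test concentration is not given. The values are filed as inhibition. Size under these conditions: about 68,000 compounds, about 24 of them at 50% or above in at least one test.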
Mtb heat-shock: 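Assay on Mycobacterium tuberculosis, filed only as a heat shock assay from Cornell; the read-out is not stated. The concentration is filed as 10 mM, unlikely as a test dose, so the dose is not known. Direction is inferred from retests: higher values go with stronger inhibition. Size under these conditions: about 69,000 compounds, about 930 of them at 50% or above in at least one test.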

All values are in %. The record does not define 0% and 100%; most values in the screen are far below 50% and negative numbers occur (in some assays of this library far below -100). The compounds are a random part of those screened. A dash means the value is not listed here; it may have been measured.

| compound | LdMetRS | Mtb heat-shock |
|---|---|---|
| `O=C(O)C(F)(F)F.O=C(c1cnccn1)N1CCCC2(CCN(Cc3ccsc3)CC2)C1` | - | -19.69% |
| `Cc1ccc(CN2CCc3ncc(CNC(=O)C4CCC4)n3CC2)o1.O=C(O)C(F)(F)F` | - | -26% |
| `CO[C@@H]1CCN(S(=O)(=O)c2cn(C)cn2)[C@H]1Cc1cnn(C)c1.O=C(O)C(F)(F)F` | - | 8.279% |
| `O=C(NC1CCC1)[C@@H]1C[C@@H]2CCN(Cc3cccs3)C[C@@H]2O1` | 10.1% | - |
| `CCOC(=O)NCc1nn(CCN2CCCC2)c(=O)c2ccccc12` | 7.859% | 74.86% |
| `CNC(=O)c1ccc(C2CN(C(=O)c3c[nH]nc3C)CCO2)nc1` (centres unmarked) | 19.27% | -13.12% |
| `CCCc1cc(C(=O)NCCN2CCCS2(=O)=O)[nH]n1` | 12.11% | 30.69% |
| `COc1ccc(CN2C[C@@H]3OCC(=O)N(Cc4nccn4C)[C@@H]3C2)cc1` | 7.797% | - |
| `Cc1nc(CN2CCC(N(C)Cc3noc(C4CC4)n3)C2)oc1C` (centres unmarked) | 7.317% | 24.84% |
| `O=C1CCN(C(=O)NCc2cccc(Oc3ccccc3)c2)CCN1` | 2.842% | -15.13% |
| `CCc1nc(C2CCCN2C(=O)CCn2cncn2)no1` (centres unmarked) | 4.53% | -12.66% |
| `O=C(c1cc(-n2cccc2)ccc1Cl)N1CCC2(CC1)OCCO2` | 18.31% | -14.22% |
| `O=C(O)C(F)(F)F.O=C(c1ccco1)N1CCOCC2(CCN(C3CCOCC3)C2)C1` (centres unmarked) | - | 5.326% |
| `CCCc1nc(C(=O)N(C)Cc2cc(CC)no2)cs1` | 9.747% | -16.68% |
| `CC(=O)N1CCOC2(CCN(C(=O)C3CC3)CC2)C1` | 16.02% | 21.84% |
| `CCNC(=O)CCS(=O)(=O)Cc1ccn(-c2cccc(F)c2)n1` | 12.23% | -7.475% |
| `CN1CCCC2(CC1)CCN(C(=O)CCc1ccccc1O)CC2` | 5.279% | -14.1% |
| `O=C(N1CCCC1)N1CCC2(CC1)COCCN(Cc1cccnc1)C2.O=C(O)C(F)(F)F.O=C(O)C(F)(F)F` | - | -1.721% |
| `O=C(NC1CCc2c(ccc(=O)n2CC2CC2)C1)c1cscn1` (centres unmarked) | 5.042% | -13.46% |
| `Cc1ncc2c(n1)CN(CC1CCCCO1)CC2` (centres unmarked) | 4.381% | 3.204% |
| `O=C(CO[C@@H]1CC[C@H]2[C@H]1OCCN2Cc1ccccn1)N1CCCC1` | 7.958% | - |
| `CC(NC(=O)c1cccs1)C(=O)Nc1cccnc1N1CCCCC1` (centres unmarked) | 17.47% | 1.541% |
| `CN1C(=O)CCC12CCN(c1ccc(C#N)cn1)CC2` | 10.56% | - |
| `Cc1cc(S(=O)(=O)NC(C)(C)CN)c(F)cc1F` | 15.92% | - |
| `CCOC(=O)N1CCc2ccccc2C12CCNCC2` | 18.58% | - |
| `CCC(c1nc(C(C)C)nn1-c1ccccn1)n1cccn1` (centres unmarked) | 8.741% | -8.458% |
| `COCCN1CC(C(=O)NCc2ccnc(-n3cccn3)c2)CC1=O` (centres unmarked) | 0.6135% | -6.02% |
| `CC(=O)N1CCN(c2cc(C3CN(C(C)=O)CCO3)nc(C)n2)CC1` (centres unmarked) | 7.12% | -34.11% |
| `O=C(c1sccc1C1CC1)N1CCCN(c2cccnn2)CC1` | 17.47% | -26.32% |
| `Cc1cc(C)c(CNC(=O)N(C)Cc2nnc3n2CCC3)c(=O)[nH]1` | 11.65% | 23.92% |
| `CSCC(CCO)NC(=O)c1cccc(F)c1Cl` (centres unmarked) | 7.932% | -11.54% |
| `O=C(O)C(F)(F)F.[H][C@@]12CCN(Cc3ccccc3OC)C[C@]1([H])O[C@H](C(=O)N1CCCC1)C2` | - | 7.49% |
| `CC(C)c1nn(C)c(Cl)c1CNC1CCOc2ccccc21` (centres unmarked) | 16.19% | - |
| `CC(C)c1cc(N2CCC(N)CC2)n2nccc2n1` | 9.63% | 1.328% |
| `Cc1ccc(-c2nc(CC(=O)NCC3CCCN(C(C)C)C3)cs2)o1` (centres unmarked) | 4.177% | -9.503% |
| `Cc1ccc(CCC(=O)N2CCn3c(nnc3C(C)C)C2)cc1Cl` | 3.359% | -5.627% |
| `[H][C@@]12COC[C@]1([H])[C@@H](OCC)CN2C(=O)c1ccnnc1` | - | -14.12% |
| `O=C(O)C(F)(F)F.O=C(O)C(F)(F)F.[H][C@@]12C[C@@H](OCc3cccnc3)CN1CCN(C(=O)c1ccco1)C2` | - | 5.484% |
| `O=C1CCSCC(C(=O)N2CCCCC2)N1` (centres unmarked) | 18.68% | -19.18% |
| `CN(C)CC(=O)N1CCc2ncnc(-c3cncnc3)c2CC1` | 6.574% | - |
| `Cc1nn(C)c(C)c1NC(=O)CN1CCN(c2nccs2)C(C)C1` (centres unmarked) | 13.89% | 7.231% |
| `CC(C)CN1CCCC12CCN(c1nncs1)C2` (centres unmarked) | 7.801% | - |
| `O=C(O)C(F)(F)F.[H][C@@]12CCCO[C@]1([H])[C@H](NC(=O)c1cnccn1)CN(C1CCCC1)C2` | - | -14.4% |
| `O=C(c1cc(-c2ccc(O)cc2)n[nH]1)N1CCCC1c1cccnc1` (centres unmarked) | 17.03% | 6.011% |
| `Cc1cnn(CCCNC(=O)C2CCCCN2Cc2ccncc2)c1` (centres unmarked) | 11.7% | 10.71% |
| `COc1ccc(CN2CCc3[nH]nc(C(=O)N(C)C)c3C2)cc1` | 17.37% | - |
| `COC(=O)CCN1CCCC1c1cccc2c1OCCO2` (centres unmarked) | 14.63% | 18.4% |
| `CCOc1ccnc(N2CCN(C(=O)c3ccc(OC)cc3)CC2)n1` | 13.14% | -8.139% |
| `CO[C@H]1CC[C@H]2[C@H]1OCCN2C(=O)CC1=CCCCC1` | 9.89% | - |
| `[H][C@]12CCN(C(=O)Cc3ccc(OC)cc3)[C@@]1([H])CCC(=O)N2` | - | -32.57% |
| `Cc1ccc(CN2C[C@@H]3CN(c4ncc(F)cn4)C[C@@H]3C2)cc1` | 5.19% | - |
| `CNc1cncc(C2CCCN2Cc2c[nH]cn2)n1` (centres unmarked) | 14.34% | -2.739% |
| `Cn1ccc(C(=O)NC2CCC23CCN(Cc2cnn(C)c2)CC3)c1` (centres unmarked) | 2.454% | - |
| `COc1ccccc1OCCN(C)Cc1c(C2CC2)[nH]c2ncccc12` | 4.07% | -26.77% |
| `COc1ccc(C(=O)NC2COc3ccccc3C2)cc1OCC(=O)O` (centres unmarked) | 4.032% | 44.11% |
| `CCN(Cc1csc(CS(C)(=O)=O)n1)c1cccc(CO)c1` | 2.941% | 1.454% |
| `CCNC(c1ccc(C)cc1)c1cccnc1` (centres unmarked) | 19.94% | 1.052% |
| `NC(=O)NC(=O)C(c1ccccc1)N1CCN(Cc2ccccc2)CC1` (centres unmarked) | 12.16% | 13.42% |
| `O=C(O)C(F)(F)F.O=C(c1cc[nH]n1)N1CCC2(CC1)CC(Oc1cccnc1)CO2` (centres unmarked) | - | 2.019% |
| `NC(=O)C1(CCCc2cccnc2)CCCN(c2ncccn2)C1` (centres unmarked) | 15.03% | 9.998% |
| `O=C(O)C(F)(F)F.[H][C@@]12OCCN(C(=O)CCc3ccccc3)[C@@]1([H])CC[C@H]2OCCN(C)C` | - | 8.449% |
| `O=C1NCCCCC1SCc1coc(-c2ccc(F)cc2)n1` (centres unmarked) | 1.003% | -14.62% |
| `c1c(CN2CCCC2)nc2n1CCN(C1CCOCC1)C2` | 7.65% | - |
| `COC(C)(C)CNC(=O)c1cn(-c2cccc(Cl)c2F)nn1` | 21.53% | 8.817% |
| `[H][C@]12CCN(Cc3ccc(OCC)c(CO)c3)C[C@]([H])(CC1)N2` | - | -10.09% |
| `Cn1cccc1C(=O)N[C@@H]1CN(CC2CC2)[C@@H]2COC[C@@H]21` | 14.64% | - |
| `Cc1ccc(C(=O)O)cc1S(=O)(=O)N(C)c1cccc(C#N)c1` | 5.226% | -2.129% |
| `Cn1cccc1CCC(=O)N1CCC2(CC1)c1ccccc1CC2O` (centres unmarked) | 13.39% | 22.07% |
| `Cc1cc(C)nc(N2CCC(Cn3cc(C(N)=O)cn3)CC2)n1` | 13.98% | -9.07% |
| `CCc1nnc2n1CCN(C(=O)C(C)COCc1ccccc1)C2` (centres unmarked) | 10.24% | 16.28% |
| `Cc1cccc2c1nc(COCC(=O)O)n2-c1cnc(N)cn1` | 17.92% | -4.014% |

Some entries from above, unchanged:

compound,LdMetRS,Mtb heat-shock
CNC(=O)c1ccc(C2CN(C(=O)c3c[nH]nc3C)CCO2)nc1 (centres unmarked),19.27%,-13.12%
Cc1nc(CN2CCC(N(C)Cc3noc(C4CC4)n3)C2)oc1C (centres unmarked),7.317%,24.84%
Cc1nn(C)c(C)c1NC(=O)CN1CCN(c2nccs2)C(C)C1 (centres unmarked),13.89%,7.231%
NC(=O)NC(=O)C(c1ccccc1)N1CCN(Cc2ccccc2)CC1 (centres unmarked),12.16%,13.42%
CCOC(=O)N1CCc2ccccc2C12CCNCC2,18.58%,-